The values below come from PubChem BioAssay AID1508600 (Functional Genomics Laboratory (NCATS/FGL), 2020).

About 3,700 (7%) of roughly 53,000 sequences were called active.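 How the source made its calls: active means gene knockdowns whose robust z-score for IL-1 alpha signal is at least 2 or at most -2, so actives lie on both sides; inactive means the rest.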 This is one part of the list.

The test can be described thus: Components of the Cytosolic LPS Sensing Pathway: Gene Identification via Genome-wide siRNA Screen.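 Further: robust z of the log signal after scaling to non-targeting control siRNA wells of the plate.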 To be noted: RAW264.7 macrophages, IL-1a HTRF, actives lie on both sides, screened at 100 nM (by protocol), cells primed 5 h with Pam3CSK4 first. Summed up:
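Read-out: IL-1a HTRF on supernatant, divided by plate negative-control median ×100, log-transformed and converted to robust z-score. Cells were RAW264.7 given 100 nM siRNA, Pam3CSK4-primed 5 hours, then LipidA-transfected 24 hour.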
On the technique in general: TR-FRET usually uses a lanthanide donor and a delayed reading to cut background.
For GGAAAAAAUAAUGGUGACATT against Fcrls, the z-score was inactive: -0.352. Turning to GGAGCAGCUGUCCAUCAAUTT against Sart3, the z-score is inactive: 0.632. As for GGAAAUUACCUUGAUGAUGTT against Anxa4, the z-score is inactive: -1.59. On to GCUCAACCAGUGUUAAAACTT against F2rl1, for which the z-score was inactive: -0.371. With GCGGGACAUAUGAAUCUACTT against Il23a, the z-score was inactive: 1.13. In the case of GCAGUUCAUACUCUCUGCATT against Olfr919 it was inactive: -0.958. Take “CGUGAAUCACUAUACAUAATT against A630052C17Rik”: the z-score is inactive: -1.39. For the sequence CCUGGUAACAGUCAUAAAUTT against Lhfpl2, the z-score was inactive: -0.0371. Turning to CGGUCUCUUCCUAAGUAAUTT against Cad, the z-score is inactive: 0.00666. With GGAUAAACCUAUGAAUGAATT against Hsf3, the z-score was inactive: 0.763.

On to CCAUGUGAUAUAAAGAGGATT against Apbb2, for which the z-score is inactive: -0.935.

Turning to GGAGAAACCAGGAUCUAUUTT against Rnf14, the z-score was active: 2.22. On to GGCUGCAUAAAAGCAUUAATT against Aldh1a1, for which the z-score is inactive: -1.24.

Turning to GGACUCAUAUCCUUACAUATT against AI854703, the z-score is inactive: -0.0584.

As to CCAAUCCUGAAUAAUGAGATT against Spag17, the z-score is inactive: 0.0419. As to GCUACGUUACUAGGCAGUGTT against Mapk8ip2, the z-score is inactive: 1.44. With CCUAUGCUGAAAUUCUUGATT against Ndufc2, the z-score was inactive: 0.0388. Regarding GCUCUAUUGUCUGGUAUUGTT against Vmn2r81, the z-score is inactive: 0.441. GGAUAUGCCAGAGACACUGTT against Carf: the z-score is inactive: -0.118.

With CACUCAAAGUUAUAUCAAGTT against Nlrp4e, the z-score was inactive: 1.27. Regarding GGCACGAUUUGCUUAUUUUTT against Usf2, the z-score is inactive: 0.0682. GGAAUCGAGAUCUUAAACATT against Itih1: the z-score is inactive: 0.27. With UUGGAACACCCUUUCUCAATT against Olfr1206, the z-score is inactive: 0.00737. On to UCAAACUAGGUGCUGUUGUTT against Olfr584, for which the z-score was inactive: 0.998. In the case of CGACCACAUGAGGAUGCAUTT against Zbtb20 it was inactive: -0.974; in that of GGAGUGGAAGAGAAAAUUUTT against Cts8, inactive: -0.0871. Take GCUACAGCUUCAAUUAAAUTT against Birc6: the z-score is inactive: 0.135. GGUGUUCCAGGUGAGAAAATT against Rps6kb2: the z-score is inactive: -0.296. Take GGCACAAAAUGACCAAAAUTT against Npy2r: the z-score was inactive: -1.02. As for GUGCUAGAAUACUUGACAGTT against H2ac1, the z-score was inactive: -1.5. Regarding GGGCAGAAACGGAUAAUGGTT against Fgl1, the z-score was inactive: 0.667. In the case of CGACUCUUACCAACCUUUUTT against Lhx2 it was inactive: 0.477; in that of GGAGACAAAGACUUGUAAGTT against Triml1, inactive: -0.39. As to GGCCAUUUGAAUCUUCUUUTT against Pigr, the z-score is inactive: -0.222. With GUCCAUUGCUUAGUGCGAUTT against Olfr961 the figure was inactive: 0.371. As to GCAGUCGCUUUGUUUUAUATT against Olfr1204, the z-score was inactive: -0.225. Consider GGUAGAGCGACAACUGGAUTT against Mcrip2, for which the z-score is inactive: -1.07. For the sequence GGAGAAUAGGAAUGUUUUUTT against Zfp112, the z-score was inactive: 1.32. With GGAGACAAACUCAAAACUGTT against Lyplal1, the z-score was inactive: -1.12. CCAACAAAAGCCUAUUCGGTT against Hsh2d: the z-score is inactive: -0.169. For GGAUUAAGUGCUCUUGGGUTT against Plscr4, the z-score is inactive: -0.357. With GGAAUCGGUGUAUUCGUUUTT against Sectm1b the figure was inactive: 0.593; with GGCCAACUUGCUGGUAUUGTT against Irgq, inactive: -1.19. Take GGAUUAAGGACAGUUUGAUTT against Mrpl16: the z-score is inactive: 0.401. Turning to GGCCAGUGGUUGUCUUAUGTT against Cyp2g1, the z-score is inactive: -0.621. For GCCAGAAUGUAUCCACGUGTT against Hspa12a, the z-score is inactive: 1.58.

GGAACAGCAUUGGAUGAAGTT against Haus3: the z-score was inactive: 1.58. As to CCUGAGCAUGAUGUGAAAUTT against Lgi4, the z-score was inactive: -1.36. Consider GGAUCCUCUCAUUAAGAAATT against Gabra1, for which the z-score was inactive: -1.15. As to CCAUCUUGAAGAUUCGUUCTT against Olfr486, the z-score is inactive: -1.24. Regarding GGUGAAGACACUCAAGGCUTT against Junb, the z-score was inactive: 1.21. As to GGUUCCUAAAGUAAAAACCTT against Gnpnat1, the z-score was inactive: 1.04.

As for GGCAGUUGUGAACUUUCUCTT against Telo2, the z-score is inactive: 0.243. For CGAAACCAUACCAGUUACUTT against Pth1r, the z-score was inactive: 1.37. For GCUGUAGUUUCAGUAGAUUTT against Rnf168, the z-score is inactive: -0.185. In the case of GGCUGACCACAUUAUAAGUTT against Ppox, the z-score is inactive: 0.165. For the sequence GGCCAGAGAAAUCUUGGUATT against Ppp4c, the z-score is inactive: -0.877. As to GGUUCACAGAUGAUACCUUTT against Rab18, the z-score was active: 4.59.

Regarding GCUUCUACUCCAUAUUACGTT against Rbm4, the z-score is inactive: -0.21. With GGUUGGUGAACUUGGAGGUTT against Hspa1a the figure was inactive: 1.41; with GGACGAGAAGCAAACUAUGTT against Pi16, inactive: -0.434. With GGAAACCUGGGCUUAGUCUTT against Olfr974, the z-score is inactive: 0.619.

For the sequence GCUAAUAGGAGGACUUGACTT against Glrx3, the z-score is inactive: -0.938. With GGCAGACAUAAGGCUUUCUTT against Olfr1056 the figure was inactive: -0.754; with GGUCACACAGACAUUGACATT against Tnn, inactive: 0.956. With GGAAACCUUUACCAUAAACTT against Epdr1, the z-score was active: -2.35. In the case of GGCUCAAUCCAAGUCUUCATT against Olfr173 it was inactive: 0.895; in that of GUUUUGGAUUCCUCUGUCATT against Olfr1097, inactive: -1.69; in that of GGAUAUGCUGAGGUGGUGGTT against Cpsf7, inactive: -1.07. CCAGGGUAAAAUAAACGAATT against Ostf1: the z-score was inactive: -1.29.

For GCACAAAUGGGAAUACGACTT against Klhl36, the z-score is inactive: -0.94.

As for CCUCAAUCAAAAUGUAAGUTT against Atp6v0a2, the z-score is inactive: 0.456. With CGGUACAUCAUUGCUGUCATT against Slc17a8 the figure was active: -2.22; with “GGGCAUCUUCCAUCUUCAATT against 4931428L18Rik”, inactive: -0.502; with GGCCCAGGUGCUAUUCUUUTT against Slc12a3, inactive: 0.322. With GGAUAUUUGAUCACUGUACTT against Vmn2r29 the figure was inactive: 1.1; with GGUGCUGUUUGUAGACUCATT against Fkbp1a, inactive: 1.53; with CCGCUACGACAAGGACAAGTT against Thap1, inactive: 0.897. With GCAGACCAUAGAUAAUUGGTT against Casp14 the figure was inactive: -0.383. On to GGCCUAAUGAAUUUGGUCATT against Ubxn7, for which the z-score is inactive: 0.93. With CCCUAAUCAGUUCACCAUCTT against Tgif2 the figure was inactive: -1.68; with GGACCAGGUAUUCAUGAUCTT against Sema3c, inactive: 0.976; with GGAUUGGUGAUCUAUGUGUTT against Dtd2, inactive: -0.488. For the sequence GCUUAUAUGGCCUGAGAGATT against Tmem199, the z-score is inactive: -0.74. With CCAUCCAUCAACAAAGCCATT against Pde4d, the z-score was inactive: 0.919. On to GGAAUACAGGAAAAUCAAATT against Ell, for which the z-score was inactive: 1.6.

In the case of GGAUUAUAUGCCAAGUGAUTT against Phyh, the z-score is inactive: 0.179.

For CGAUAAACUGGAUACCACUTT against Sntn, the z-score is inactive: 0.437. For GGGAAUGGAGGUCCAGAUUTT against Spatc1l, the z-score is active: -2.33.

GGGAUACCCGGCGUAAUCUTT against Col4a2: the z-score was inactive: 1.31. Take GUGUGUGGAGAAGCCAGGATT against Timm8b: the z-score was inactive: 0.00536.

Consider GGGAUCAGAGGAAUGUAUCTT against Herc4, for which the z-score was inactive: -0.209. In the case of GCAUAAGCUACUGCUGACATT against Pcdha6 it was inactive: -0.782; in that of GGAGAUCGAUUUGGAAAACTT against Irx3, inactive: -0.837; in that of GGCAACAUCAGAAUUGGAATT against Clcn2, inactive: -0.958. In the case of “GCUGGUCGUCAUCAAAUGUTT against 5031410I06Rik” it was inactive: -0.949; in that of GCAUCAGGCCCGUUCAGAATT against Ddx4, active: 3.23. Take GGAGACAGCAUUCAUUUAUTT against Wnt16: the z-score was inactive: 0.94. Take GGGAACCUCACCAUUAUCATT against Olfr769: the z-score is inactive: -0.413. Consider GGAACUCAGAGUGUACGCATT against Arap3, for which the z-score was inactive: 1.6. In the case of GGUUUUGCUAGUAAGAAAGTT against Trim3 it was inactive: -1.26; in that of CCAUGAGACCUCUGAUAAATT against Atl3, inactive: -0.172. On to CGUGUGGAUUUUAAUAGAATT against Wdpcp, for which the z-score was inactive: -0.0571. With GCUGUGGUUGUCCAACAAGTT against Il17b, the z-score is inactive: 0.185. In the case of GGAAUACUAUGACAGGAAGTT against Tnfrsf1b it was inactive: -0.873; in that of GGCAUCCAUCAACAACAGGTT against Ahsa1, inactive: -0.925; in that of GGGAUUGUGUGAAUCAUACTT against Tmem230, inactive: -1.27.
